Some peptides are written in HELM: one residue between dots, names in brackets for other building blocks, links after the first $. * marks the point of attachment. Cbz = O=C(OCc1ccccc1)*; Boc = CC(C)(C)OC(=O)*; OBn = c1ccc(CO*)cc1

One data set in a line: general procedure: solution-phase peptide synthesis; EEC / NMM (mixed anhydride). To be noted: coupling step, HCl; trifluoroacetates when Boc-deblocking with CF3COOH.
Substance Boc-QWAVG-OBn showed a step yield of 83%.

Take Boc-TQWAVG-OBn: the step yield worked out at 78%.

In turn, Boc-TQWAVG-OH returned a step yield of 84%.

As for Boc-WAVG-OBn, the step yield is reported as 78%.

Substance Cbz-QWAVG-OBn returned a step yield of 81%.

With “PEPTIDE1{[Boc].T.Q.W.A.V.G.L.M.[am]}$$$$V2.0”, the step yield worked out at 66%.

For the substance “PEPTIDE1{[Boc].T.Q.W.A.V.G.[dF].L.M.[am]}$$$$V2.0”, the step yield was 92%.

Still in this data set, the particulars now being: late stage modification step, HCl.
Substance PEPTIDE1{T.Q.W.A.V.G.L.M.[am]}$$$$V2.0 returned a step yield of 58%.

Turning to “PEPTIDE1{T.Q.W.A.V.G.[dF].L.M.[am]}$$$$V2.0”, the step yield is reported as 84%.

Staying with this data set, now noted: late stage modification step, HCl; trifluoroacetates when Boc-deblocking with CF3COOH.
Boc-TQWAVG-OH returned a step yield of 75%.

HCl.H-Gln-Trp-Ala-Val-Gly-OBzl gave a step yield of 93%.

As to HCl.H-Trp-Ala-Val-Gly-OBzl, the step yield worked out at 98%.

Values taken from patent EP0339193A1 (FARMITALIA CARLO ERBA S.r.l., priority 1988, dated 1989).
